Source: PMC7343964
Read-outs that look alike come from different tables or passages of the source. These are yes or no findings as the source states them, for the method shown. In cells and extracts the contact can be indirect. Some results given as binding are weak or reduced against the parent protein; the word gives no strength. Sequences can lack the tags named with a protein.

By UniProt entry, the sequences of proteins in these tests, tags left out.
UniProt Q9FRL8: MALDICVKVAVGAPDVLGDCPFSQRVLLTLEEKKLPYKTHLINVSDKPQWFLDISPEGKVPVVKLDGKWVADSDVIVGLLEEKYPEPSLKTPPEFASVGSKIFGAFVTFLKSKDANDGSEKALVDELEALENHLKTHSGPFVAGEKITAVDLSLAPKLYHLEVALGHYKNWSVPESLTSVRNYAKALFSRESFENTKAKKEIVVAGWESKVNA

Legend:
[1] = biological target: T1, YAP1C probe (Yap1 C-terminal cysteine-rich domain construct fused to a tandem affinity purification tag) (Saccharomyces cerevisiae) (UniProt P19880); experiment: cross-linking; mixed disulfide formed in the cells between Cys598 of YAP1C and a sulfenylated cysteine (cells untreated or 20 mM H2O2 for 30 min); IgG-Sepharose enrichment, on-bead tryptic digestion, then enrichment of C598SEIWDR disulfide-linked peptides on anti-C598SEIWDR antibody beads; LC-MS/MS, pLink 2, FDR ≤ 1%
T1 sequence: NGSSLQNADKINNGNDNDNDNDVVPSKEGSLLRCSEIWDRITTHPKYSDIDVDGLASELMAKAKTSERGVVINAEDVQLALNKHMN

[2] = biological target: T1, YAP1C probe (Yap1 C-terminal cysteine-rich domain construct fused to a tandem affinity purification tag) (Saccharomyces cerevisiae); experiment: as above; remark: listed apart in the source

DEHYDROASCORBATE REDUCTASE 2 (from UniProt Q9FRL8 1-213) (enzyme)
binding [1]: binds

B1: ascorbate peroxidase 1 (enzyme, UniProt Q05431 1-250)
chain: MTKNYPTVSEDYKKAVEKCRRKLRGLIAEKNCAPIMVRLAWHSAGTFDCQSRTGGPFGTMRFDAEQAHGANSGIHIALRLLDPIREQFPTISFADFHQLAGVVAVEVTGGPDIPFHPGREDKPQPPPEGRLPDATKGCDHLRDVFAKQMGLSDKDIVALSGAHTLGRCHKDRSGFEGAWTSNPLIFDNSYFKELLSGEKEGLLQLVSDKALLDDPVFRPLVEKYAADEDAFFADYAEAHMKLSELGFADA
modifications: sulfenylated Cys32 and Cys49, trapped as mixed disulfide with Cys598 of YAP1C
binding [2]: binds

B2: YAP1C probe (Yap1 C-terminal cysteine-rich domain construct fused to a tandem affinity purification tag) (domain or fragment, UniProt P19880 565-650)
chain: T1 sequence
binding [2]: no binding
